Results reported in PubChem BioAssay AID485314 (National Center for Advancing Translational Sciences (NCATS), 2010).
The whole screen tested about 340,000 compounds, of which about 4,500 (1.3%) were called active. Inconclusive means that the source gave no clear call. Such entries were picked first, then a sample of the others. The call rests on the fitted dose curve; in most records, active means well fitted inhibition curve with a large enough effect; inconclusive means small, poorly fitted or top-dose-only effect, or another doubt; inactive means no such curve, though single readings can be large or run the other way. Where the call is inconclusive, the potency comes from a doubtful curve fit.

target: DNA polymerase beta (Homo sapiens) (UniProt P06746); assay: qHTS Assay for Inhibitors of DNA Polymerase Beta; details: Pol beta primer extension/strand displacement, fluorescence kinetic; activity change, negative = inhibition: at 114 µM (top of the series)
Method in brief: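 Pol beta (10 nM) was preincubated with compound for 15 min at room temperature. The reaction was then started with 50 nM substrate and read immediately and after a further 10 min at room temperature.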
On the % scale 0 is the no-effect control and ±100 the full control effect; potency means the concentration at half of the fitted maximal effect.

Potency, inconclusive:
COC(=O)COc1ccc(NC(=O)C(c2ccccc2)c2ccccc2)cc1 50.1 µM [inhibitor, partial curve]
O=C1c2cc([N+](=O)[O-])cc3cc([N+](=O)[O-])cc(c23)C(=O)N1c1ccccn1 39.8 µM [inhibitor, partial curve, poor fit]
Clc1cnc(N/N=C/c2ccncc2)c(Cl)c1 11.2 µM [inhibitor, single point]
Cc1ccc(CN2CCN(/N=C/c3ccc(C(F)(F)F)cc3)CC2)c(C)c1 35.5 µM [inhibitor, single point]
Cc1ccc(-n2c(SCC(=O)N/N=C/c3ccc(C)s3)nnc2-c2ccccc2)cc1 39.8 µM [inhibitor, single point]
COc1ccc(C(=O)Nc2ccc(C(=O)Nc3nccs3)cc2)cc1[N+](=O)[O-] 70.8 µM [inhibitor, partial curve]
COc1ccc2oc(C(=O)OCC(=O)N(Cc3ccccc3)C(C)(C)C)c(C)c2c1 14.1 µM [inhibitor, partial curve]
CCn1c(SCC(=O)c2ccc(O)c(O)c2)nnc1-c1ccccc1 10 µM [inhibitor, full curve, poor fit]
O=C(NCCC1=CCCCC1)c1ccc(Cl)c(S(=O)(=O)N2CCOCC2)c1 39.8 µM [inhibitor, single point]
O=C(CNC(=O)c1ccccc1Br)N/N=C/c1cc(Br)ccc1O 15.8 µM [inhibitor, full curve]
C=CCSc1nc(C)cc(/C=C\c2ccccc2)c1C#N 14.1 µM [inhibitor, partial curve]
CC(=O)CCS(=O)(=O)c1ccc(NC(C)=O)cc1 0.141 µM [inhibitor, full curve, poor fit]
COC(=O)[C@H](Cc1ccccc1)NC(=O)N1CCN(c2ccccc2)CC1 89.1 µM [inhibitor, single point]
CCN(CC)S(=O)(=O)c1cccc(C(=O)Nc2ccc3c(c2)OCO3)c1 89.1 µM [inhibitor, single point]
CC[C@H](C)NC(=O)c1ccc(Cn2c(=S)[nH]c3c([nH]c4ccc(OC)cc43)c2=O)cc1 11.2 µM [inhibitor, partial curve]
O=C(c1ccc2c(c1)OCO2)C1CCCN(C(=O)NCc2ccccc2)C1 (stereo unspecified) 89.1 µM [inhibitor, single point]
O=C(COc1ccc(-n2cnnn2)cc1)NC1CCCCC1 89.1 µM [inhibitor, single point]
COc1ccc(/C=N/Nc2ncnc3sc4c(c23)CCCC4)cc1O 39.8 µM [inhibitor, single point]
COc1ccc(C(=O)N/N=C(\C)Cn2nc([N+](=O)[O-])cc2C)cc1 0.282 µM [inhibitor, full curve, poor fit]
COc1ccc2c(c1OC)C(=O)N(c1ccccc1)C2=O 2 µM [inhibitor, partial curve, poor fit]
O=C(N/N=C/c1ccc2c(c1)OCO2)c1ccc(Br)o1 56.2 µM [inhibitor, single point]
CCCn1c(C)cc(C(=O)COc2ncnc3sccc23)c1C 2.51 µM [inhibitor, single point]
COc1ccc(/C=N/NC(=O)CCC(=O)Nc2ccccc2)cc1OC 50.1 µM [inhibitor, partial curve]
Cc1oc(C(=O)O)cc1COc1ccc2c(C)cc(=O)oc2c1 15.8 µM [inhibitor, full curve]
O=C(CSc1nnc(CNc2ccc(F)cc2)o1)c1ccccc1 15.8 µM [inhibitor, partial curve]
O=C(NCc1cccnc1)c1ccc(COc2cccc3ccccc23)o1 31.6 µM [inhibitor, single point]
CCN(CC)CCCNC(=O)CSc1nc2c(c(C(F)(F)F)n1)CCc1ccccc1-2 3.16 µM [inhibitor, full curve]
Cc1ccc(NC(=O)c2oc3ccc(S(=O)(=O)N4CCOCC4)cc3c2C)cc1C 89.1 µM [inhibitor, single point]
O=C(Cn1ncc2c3ccccc3n(Cc3cccc(Cl)c3)c2c1=O)NCCCN1CCCCC1 25.1 µM [inhibitor, full curve, poor fit]
Cc1noc(C)c1COC(=O)c1ccc(S(=O)(=O)NCc2ccco2)cc1 22.4 µM [inhibitor, full curve]
O=[N+]([O-])c1ccc(/C=C2\CCC(C3=CCCC3)=C2N2CCOCC2)cc1 5.01 µM [inhibitor, full curve, poor fit]
CCN(Cc1ccccc1)CC(O)COc1ccccc1 (stereo unspecified) 89.1 µM [inhibitor, single point]
CC(=O)N1c2ccc3ccccc3c2C(C)CC12CCCCC2 (stereo unspecified) 3.55 µM [inhibitor, full curve, poor fit]
COc1ccccc1Cn1c(=S)[nH]c2cc(C(=O)N3CCCC3)ccc2c1=O 3.55 µM [inhibitor, single point]
Cc1c(Cc2ccccc2)c(=O)oc2c(C)c(OC(C)C(=O)N[C@@H](Cc3ccccc3)C(=O)O)ccc12 (stereo partly specified) 100 µM [inhibitor, single point]
N=c1n(CCN2CCOCC2)c2ccccc2n1CC(=O)c1ccc(Cl)c(Cl)c1 0.891 µM [inhibitor, partial curve, poor fit]
Cc1ccc(NC(=O)c2ccc(NCCCN3CCC(C)CC3)c([N+](=O)[O-])c2)cc1F 15.8 µM [inhibitor, full curve, poor fit]
COc1ccc(OC)c(NC(=O)Cn2ccn(-c3ccc(OC)c(OC)c3)c(=O)c2=O)c1 4.47 µM [inhibitor, full curve]
CC(C)NC(=O)CN1CCN(Cc2nc(C(c3ccccc3)c3ccccc3)no2)CC1 2.51 µM [inhibitor, full curve, poor fit]
CCOc1ccc(NC(=O)CCC(=O)N/N=C/c2ccc3c(c2)OCO3)cc1 35.5 µM [inhibitor, partial curve, poor fit]
CCc1ccc(NC(=O)Nc2ccccc2OCc2cc(=O)n3ccccc3n2)cc1 44.7 µM [inhibitor, partial curve]

3 compounds out of the list, ordered by number of heavy atoms, ascending.
Potency, inconclusive:
CCN(CC)S(=O)(=O)c1cccc(C(=O)Nc2ccc3c(c2)OCO3)c1 89.1 µM [inhibitor, single point]
COC(=O)[C@H](Cc1ccccc1)NC(=O)N1CCN(c2ccccc2)CC1 89.1 µM [inhibitor, single point]
CC(C)NC(=O)CN1CCN(Cc2nc(C(c3ccccc3)c3ccccc3)no2)CC1 2.51 µM [inhibitor, full curve, poor fit]

Next part:

Potency, active:
Cc1c(Br)cc(C(=O)NCc2ccco2)c(C)c1C 22.4 µM
Oc1cccc(/C=N/N=C/c2cccc(O)c2O)c1O 0.316 µM
S=c1[nH]nc(COc2ccccc2)n1/N=C/C=C/c1ccco1 20 µM
CN=c1scc(-c2ccco2)n1/N=C/c1ccc(O)c(O)c1 2.82 µM
C=CCn1c(C)cc(C(=O)COC(=O)c2ccc3c(c2)NC(=O)CS3)c1C 39.8 µM
Cc1cc(/C=C2\C(=N)N3N=C(c4ccco4)SC3=NC2=O)c(C)n1Cc1ccccc1 10 µM
CC(=O)c1ccc(NC(=O)c2noc3c2CCC3)cc1 15.8 µM
CCc1oc(C(=O)O)cc1COC 22.4 µM
Cc1ccc(NC(=O)CSc2nc(-c3cccs3)nc3cc(=O)[nH]n23)cc1C 50.1 µM
Cc1ccc(/C=c2\sc3nc(-c4ccccc4Br)nn3c2=O)o1 14.1 µM
N=C1/C(=C\c2ccc(SCc3ccco3)o2)C(=O)N=C2SC=NN12 39.8 µM
COc1ccc2c(CC(=O)NCc3ccc4c(c3)OCO4)coc2c1 17.8 µM

Activity change, negative = inhibition, inconclusive:
Cc1ccc2c(c1)N(C)/C(=C/c1cccc[n+]1C)S2 -113% [inhibitor]

Activity change, negative = inhibition, inactive:
COC(=O)c1cc2oc3ccccc3c2n1Cc1nc(-c2ccc(Cl)cc2)oc1C 24%
Cc1cc([N+](=O)[O-])nn1CC(=O)N1CCCc2ccccc21 -2.2%
CCCn1c(=O)n(-c2ccccc2Cl)c(=O)c2sc3ccccc3c21 3.41%
COc1ccc(-c2nnc(SCC(=O)NCCc3ccc(OC)c(OC)c3)nc2-c2ccc(OC)cc2)cc1 19.5%
Cc1ccc(-n2nc(CO)c(C(=O)NCCCCc3ccccc3)n2)cc1C 13.5%
CCCc1ccc(S(=O)(=O)N2CCC(c3nnc(-c4cccc(C)c4)o3)CC2)cc1 2.27%
COC1=C/C(=C/c2c(N)n3cc(C)sc3nc2=O)C=CC1=O 2.29%
Oc1c(C(c2ccccc2)N2CCOCC2)sc2nc(-c3ccco3)nn12 (stereo unspecified) -5.77%
O=C(NCCc1ccco1)c1cc(COc2cccc(C(F)(F)F)c2)on1 0.169%
Cc1ccc(S(=O)(=O)n2c(N)nc3ccccc32)cc1 -6.04%
CC(=O)N(/N=C1\Sc2ccccc2C1=O)c1ccc(C)cc1C 3.12%
Cc1ccc(CNC(=O)Cn2c(=O)cc(C)c3c(C)nn(-c4cccc(F)c4)c32)cc1 69.8%
CCc1oc(C(=O)O)cc1CN(CC)CC 1.19%
CCOC(=O)c1cnc(N2CCN(c3cccc(C)c3C)CC2)c2ccccc12 1.58%
COc1cc(C(CCN2CCCC2)c2c(OC)cc(OC)c3ccc(=O)oc23)cc(OC)c1OC (stereo unspecified) -27.9%
Cc1cc(=O)oc2cc(OCC(=O)N3CCN(c4ccc(F)cc4)CC3)ccc12 19.8%
CC(=O)COC(=O)C1CC(=O)N(c2ccc(C)c(C)c2)C1 (stereo unspecified) -1.58%
